Measurements reported in PubChem BioAssay AID1224826 (NIAID, 2016).

Aim: 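Genes that change LPS-induced Tnf promoter activity in mouse macrophages when knocked down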 (primary screen)
Cells: RAW264.7 G9 macrophages from mouse bearing reporters for p65 (GFP) and the Tnf promoter (mCherry)
Knock-down reagent: siRNA pool against mouse genes, 100 nM
Timing: 16 h of LPS stimulation, after 2 days of siRNA transfection
Conditions: bacterial lipopolysaccharide (Salmonella minnesota R595), 10 ng/ml
Measurement: 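Nuclear mCherry signal of the Tnf promoter reporter measured by imaging after background removal, scaled to each plate median and turned into robust z-scores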
Direction: Tnf reporter robust z-score: higher = stronger Tnf promoter reporter signal after LPS
Hit rule: 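a well counts as active at a score of -1.3 or below (Tlr4 knock-down control median) or above 3 (raised signal); controls and wells holding fewer than 50 cells are excluded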
Meaning of the calls: active = Tnf reporter clearly lowered or raised; inactive = no clear change in Tnf reporter
The deposit covers about 17,000 reagents; shown is a random part of them. About 1,110 of them (6.6%) were called active. 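Active means lowered or raised reporter signal; replicate intensities are raw and not normalised per plate.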 The numbers tell different reagents against one gene apart. Further read-outs or replicates are left out here.

| gene knocked down | reagent no. | Tnf reporter robust z-score | fewer than 50 cells in well | outcome |
| --- | --- | --- | --- | --- |
| Gm9758 | 1 | 0.44 | enough cells in well | inactive |
| Tnni1 | 1 | 0.65 | enough cells in well | inactive |
| Bmp4 | 1 | 1.62 | enough cells in well | inactive |
| 1700018F24Rik | 1 | – | fewer than 50 cells per well; well left out of calls | inactive |
| Dab2 | 1 | 1.43 | enough cells in well | inactive |
| Dab2 | 2 | 0.16 | enough cells in well | inactive |
| Elovl6 | 1 | 0.22 | enough cells in well | inactive |
| Adam9 | 1 | 0.03 | enough cells in well | inactive |
| Zdhhc5 | 1 | -0.92 | enough cells in well | inactive |
| LOC243676 (retired record) | 1 | -0.52 | enough cells in well | inactive |
| Abca16 | 1 | 1.41 | enough cells in well | inactive |
| C1galt1 | 1 | 0.88 | enough cells in well | inactive |
| Bmp2k | 1 | 0.03 | enough cells in well | inactive |
| Usp14 | 1 | 0.29 | enough cells in well | inactive |
| Hspb7 | 1 | 0.26 | enough cells in well | inactive |
| Gnpda1 | 1 | 0.11 | enough cells in well | inactive |
| F9 | 1 | 1.23 | enough cells in well | inactive |
| Erg28 | 1 | 1.57 | enough cells in well | inactive |
| Wnt7b | 1 | -1.02 | enough cells in well | inactive |
| Rad23b | 1 | 0.14 | enough cells in well | inactive |
| Il11ra1 | 1 | – | fewer than 50 cells per well; well left out of calls | inactive |
| Spata32 | 1 | 2.16 | enough cells in well | inactive |
| Borcs7 | 1 | 0.92 | enough cells in well | inactive |
| Vps29 | 1 | 1.29 | enough cells in well | inactive |
| Stag1 | 1 | 3.46 | enough cells in well | active |

Looked up above.
Result of Wnt7b under “outcome”: inactive
Under “Tnf reporter robust z-score”, Abca16 is entered as 1.41
Value of Adam9 in “fewer than 50 cells in well”: enough cells in well
Result of C1galt1 in “outcome”: inactive
For “fewer than 50 cells in well”, Dab2 #1 has enough cells in well
Erg28, outcome = inactive

More entries:
| gene knocked down | reagent no. | Tnf reporter robust z-score | fewer than 50 cells in well | outcome |
| --- | --- | --- | --- | --- |
| Erf | 1 | 1.33 | enough cells in well | inactive |
| Nup188 | 1 | -0.51 | enough cells in well | inactive |
| Batf2 | 1 | -0.2 | enough cells in well | inactive |
| Or10h1b | 1 | -1.08 | enough cells in well | inactive |
| Mib1 | 1 | -0.22 | enough cells in well | inactive |
| Nhsl1 | 1 | -1.09 | enough cells in well | inactive |
| Sspn | 1 | -0.15 | enough cells in well | inactive |
| Mal2 | 1 | 0.03 | enough cells in well | inactive |
| Crlf2 | 1 | 0.11 | enough cells in well | inactive |
| Srp54a | 1 | – | fewer than 50 cells per well; well left out of calls | inactive |
| Krtap15-1 | 1 | 3.28 | enough cells in well | active |
| Vmn1r180 | 1 | -0.41 | enough cells in well | inactive |
| 2810428J06Rik | 1 | 1.47 | enough cells in well | inactive |
| Ifi27l2b | 1 | – | fewer than 50 cells per well; well left out of calls | inactive |
| Cenps | 1 | 2.55 | enough cells in well | inactive |
| Me2 | 1 | 0.87 | enough cells in well | inactive |
| Cast | 1 | -0.51 | enough cells in well | inactive |
| Tbata | 1 | -0.65 | enough cells in well | inactive |
| Gm16938 | 1 | – | fewer than 50 cells per well; well left out of calls | inactive |
| Tmprss15 | 1 | -0.19 | enough cells in well | inactive |
| Shld2 | 1 | -0.52 | enough cells in well | inactive |
| Ddx19b | 1 | – | fewer than 50 cells per well; well left out of calls | inactive |
| Fam219b | 1 | – | fewer than 50 cells per well; well left out of calls | inactive |
| Eif2b5 | 1 | -0.45 | enough cells in well | inactive |
| Prom2 | 1 | 1.04 | enough cells in well | inactive |
| Tmc1 | 1 | 0.43 | enough cells in well | inactive |
| Fundc2 | 1 | – | fewer than 50 cells per well; well left out of calls | inactive |
| Spata9 | 1 | 2.19 | enough cells in well | inactive |
| Hsd3b5 | 1 | 0.71 | enough cells in well | inactive |
| Rassf1 | 1 | 0.34 | enough cells in well | inactive |
| Pglyrp4 | 1 | 0.64 | enough cells in well | inactive |
| Rnf10 | 1 | 2.61 | enough cells in well | inactive |
| Coro7 | 1 | 2.03 | enough cells in well | inactive |
| Pam | 1 | 0.02 | enough cells in well | inactive |
| Or11h6 | 1 | -1 | enough cells in well | inactive |
| Unc119 | 1 | -0.78 | enough cells in well | inactive |
| Aarsd1 | 1 | 2.44 | enough cells in well | inactive |
| Dpyd | 1 | -0.85 | enough cells in well | inactive |
| Hgh1 | 1 | 1.27 | enough cells in well | inactive |
| Ap2m1 | 1 | -1.82 | enough cells in well | active |
| Rlim | 1 | -0.37 | enough cells in well | inactive |
| Rlim | 2 | -0.31 | enough cells in well | inactive |
| Kifc2 | 1 | -0.18 | enough cells in well | inactive |
| Ggt1 | 1 | 0.99 | enough cells in well | inactive |
| F2r | 1 | -0.2 | enough cells in well | inactive |
| Cd2ap | 1 | 0.13 | enough cells in well | inactive |
| Or1a1b | 1 | 0.56 | enough cells in well | inactive |
| Nxph3 | 1 | 0.59 | enough cells in well | inactive |
| Or10d1c | 1 | 2.2 | enough cells in well | inactive |
| Il11ra2 | 1 | -0.3 | enough cells in well | inactive |
